From paper PMC9769691
No constants are given. Whether binding was seen depends on the method and setting. Binding calls can cover weak binding; strength is not graded here.

Target: Nosema bombycis Sec31-1 (NbSec31-1) (Nosema bombycis) (UniProt R0MLW8)
Experiment: two-hybrid; bait in pGBKT7-BK and prey in pGADT7-AD cotransformed into Y2H Gold yeast cells; colonies from SD-Leu/-Trp plates cultured on SD-Ade/-His/-Leu/-Trp plates containing X-alpha-gal at 28°C

## Nosema bombycis Sec13 (NbSec13) (from UniProt R0KZ01)
  binding: binds

## Nosema bombycis Sec23-1 (NbSec23-1) (from UniProt R0MF96)
  binding: binds
